{
  "source": "patent US7253177B2",
  "about": "“Synthesis and antimalarial activity of pyrrolo[3,2-f]quinazoline-1,3-diamine derivatives” (United States of America as Represented by the Secretary of …, priority 2004, dated 2007)",
  "test_system": "P. cynomolgi sporozoites",
  "assay": "Presumptive causal prophylactic test against P. cynomolgi in Rhesus monkey",
  "format": "in vivo, Plasmodium cynomolgi",
  "method": "(e). Toxicity Study in Aotus monkey: Protocol: Two malaria double cured Aotus weighing 1027-695 grams respectively received single dose of 3 mg/kg orally of the two compounds 2b and 3e. The monkeys were weighed and pre-bleed for CBC and Chemistry (ALT, BUN, Creatinine) determination, and again three, seven and 15 days post treatment. Signs of toxicity such as anorexia, vomiting, diarrhea or behavior changes were recorded. […] (f). Antimalarial Activity against P. falciparum in Aotus monkey: Protocol: Six (6) malaria naive Aotus lemurinus lemurinus (weigh 787-978 grms) were divided into two groups of two Aotus each plus two controls (MN13177 male and MN 13153 male) and infected with 5×10^6 P. falciparum FVO malaria parasites with 1 ml of an appropriate dilution in RPMI media intravenously on the saphenous vein. When their parasitemia reached 5×10^4 parasites/ul, treatment was started. Giemsa-stained thick blood smears were prepared daily with a prick in the ear marginal vein and parasites enumerated by the Earle and Perez method. Group 1 Aotus received 3e at 1 mg/kg once a day×three days. Group 2 Aotus received 2b at 1 mg/kg once a day×three days. The monkeys were weight and pre-bled for CBC and Chemistry (ALT, BUN, Creatinine) determination, and on day 4 post-treatmetne (PT). Bleedings for Pk determinations were carried out on day 1 PT at time 0, 1 hr, 7:30 hr and 24 hr PT. […]",
  "note": "Some results were stated once for a whole list of compounds, not compound by compound.",
  "data": [
    {"smiles": "CCOC(=O)Nc1nc(NC(=O)OCC)c2c(ccc3c2ccn3Cc2ccccc2C(F)(F)F)n1", "note": "[Compound 2b]", "values": [
      {"measurement": "day of parasitemia development after sporozoite challenge", "setting": "oral 3 mg/kg on days -1, 0, 1, control day 8", "result": "18 to 23", "unit": "days"},
      {"measurement": "protection compared with untreated control", "setting": "oral 3 mg/kg, 3 mg/kg", "result": "8 to 15", "unit": "days"}
    ]}
  ]
}
